Results are given in words; binding and its absence hold for the method and conditions named. Some entries that bind do so weakly or less than the wild type.
Experiments:
[1] = molecular target: CXCR4-VN (human) (UniProt P61073); assay: BiFC, U-2 OS cells
[2] = molecular target: CXCR4-VN (human) (UniProt P61073); assay: BiFC, U-2 OS cells (FIG. 2D)
[3] = molecular target: CXCR4-EGFP (human) (UniProt P61073); assay: co-internalization of CXCR4-GFP after GPCRx agonist, U-2 OS cells

Amino acid sequences for entries named in this document (tags omitted). Residues count along the entry.
UniProt P61073: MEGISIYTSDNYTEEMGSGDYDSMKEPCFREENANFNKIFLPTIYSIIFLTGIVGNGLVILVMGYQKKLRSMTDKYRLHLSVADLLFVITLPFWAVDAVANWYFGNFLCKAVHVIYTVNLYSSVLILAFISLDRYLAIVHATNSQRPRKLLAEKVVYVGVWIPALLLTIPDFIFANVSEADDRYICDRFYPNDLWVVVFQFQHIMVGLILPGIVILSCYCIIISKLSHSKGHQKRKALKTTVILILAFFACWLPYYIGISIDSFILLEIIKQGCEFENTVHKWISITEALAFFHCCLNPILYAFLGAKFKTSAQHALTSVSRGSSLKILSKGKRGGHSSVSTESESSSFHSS
UniProt P41586, residues 21-468: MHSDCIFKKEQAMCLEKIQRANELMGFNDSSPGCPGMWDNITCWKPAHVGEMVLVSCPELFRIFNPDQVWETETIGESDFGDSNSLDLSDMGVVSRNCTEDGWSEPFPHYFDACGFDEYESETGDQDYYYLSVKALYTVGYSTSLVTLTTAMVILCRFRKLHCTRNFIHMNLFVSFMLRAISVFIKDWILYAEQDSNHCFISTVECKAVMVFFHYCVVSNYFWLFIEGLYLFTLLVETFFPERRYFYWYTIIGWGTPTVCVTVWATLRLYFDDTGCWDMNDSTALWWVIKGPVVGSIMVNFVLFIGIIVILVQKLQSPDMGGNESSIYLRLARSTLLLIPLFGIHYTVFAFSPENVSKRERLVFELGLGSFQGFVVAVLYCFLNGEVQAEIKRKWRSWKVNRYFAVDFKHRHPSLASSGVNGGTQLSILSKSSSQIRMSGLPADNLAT

binding [1]: binds
binding [2]: binds
binding [3]: binds
Substance: ADCYAP1R1-VC (from UniProt P41586 21-468) (receptor)
